Data as given in patent US20080280868A1, “Pyridine Derivatives and Their Use as Cb2 Receptor Modulators” (priority 2004, published 2008).
Some of these results come from one statement about several compounds together.

Sequences of proteins named here, by UniProt entry; tags and fusion partners are left off.
UniProt P34972, whole entry: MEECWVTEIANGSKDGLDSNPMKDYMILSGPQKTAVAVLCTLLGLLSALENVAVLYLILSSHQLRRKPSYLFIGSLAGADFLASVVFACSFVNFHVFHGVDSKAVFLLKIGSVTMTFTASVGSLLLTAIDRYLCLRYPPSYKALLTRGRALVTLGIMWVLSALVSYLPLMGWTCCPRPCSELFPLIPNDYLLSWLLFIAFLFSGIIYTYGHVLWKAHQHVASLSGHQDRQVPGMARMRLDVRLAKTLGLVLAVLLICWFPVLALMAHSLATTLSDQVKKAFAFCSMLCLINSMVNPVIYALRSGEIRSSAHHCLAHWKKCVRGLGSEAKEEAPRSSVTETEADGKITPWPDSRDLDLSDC

Molecular target: T1, human cannabinoid CB2 receptor (Homo sapiens, UniProt P34972)
T1 construct: expressed in transfected cells; host or cells: Saccharomyces cerevisiae strain MMY23 (cassette integrated at the ura3 locus, GPD promoter)
Test: Cannabinoid CB2 receptor agonist activity in yeast cells (FDGlu fluorescence)
Assay type: cell-based
Settings: Emax relative to HU210; yeast expressing human CB2
Experimental: The cannabinoid CB2 receptor agonist activity of the compounds of formula (I) was determined in accordance with the following experimental method.
Yeast (Saccharomyces cerevisiae) cells expressing the human cannabinoid CB2 receptor were generated by integration of an expression cassette into the ura3 chromosomal locus of yeast strain MMY23. This cassette consisted of DNA sequence encoding the human CB2 receptor flanked by the yeast GPD promoter to the 5′ end of CB2 and a yeast transcriptional terminator sequence to the 3′ end of CB2. […]
Agonists were prepared as 10 mM stocks in DMSO. […] After incubation at 30° C. for 24 hours, fluorescence resulting from degradation of FDGlu to fluorescein due to exoglucanase, an endogenous yeast enzyme produced during agonist-stimulated cell growth, was determined using a Spectrofluor microtitre plate reader (Tecan; excitation wavelength: 485 nm; emission wavelength: 535 nm). Fluorescence was plotted against compound concentration and iteratively curve fitted using a four parameter fit to generate a concentration effect value. Efficacy (Emax) was calculated from the equation
Equieffective molar ratio (EMR) values were calculated from the equation

For “(3-Chloro-4-fluoro-phenyl)-{5-[(cyclobutylmethyl-amino)-methyl]-4-cyclopropyl-pyridin-2-yl}-amine,compound with formic acid (1:1.5) [Example 28]”, the “efficacy value (Emax) at the cloned human cannabinoid CB2 receptor” value was > 50%.
